## Library screening results

Protein sequences, listed by entry. Tags and fused reporters are not part of them.
UniProt E9BF75, entry or part of it: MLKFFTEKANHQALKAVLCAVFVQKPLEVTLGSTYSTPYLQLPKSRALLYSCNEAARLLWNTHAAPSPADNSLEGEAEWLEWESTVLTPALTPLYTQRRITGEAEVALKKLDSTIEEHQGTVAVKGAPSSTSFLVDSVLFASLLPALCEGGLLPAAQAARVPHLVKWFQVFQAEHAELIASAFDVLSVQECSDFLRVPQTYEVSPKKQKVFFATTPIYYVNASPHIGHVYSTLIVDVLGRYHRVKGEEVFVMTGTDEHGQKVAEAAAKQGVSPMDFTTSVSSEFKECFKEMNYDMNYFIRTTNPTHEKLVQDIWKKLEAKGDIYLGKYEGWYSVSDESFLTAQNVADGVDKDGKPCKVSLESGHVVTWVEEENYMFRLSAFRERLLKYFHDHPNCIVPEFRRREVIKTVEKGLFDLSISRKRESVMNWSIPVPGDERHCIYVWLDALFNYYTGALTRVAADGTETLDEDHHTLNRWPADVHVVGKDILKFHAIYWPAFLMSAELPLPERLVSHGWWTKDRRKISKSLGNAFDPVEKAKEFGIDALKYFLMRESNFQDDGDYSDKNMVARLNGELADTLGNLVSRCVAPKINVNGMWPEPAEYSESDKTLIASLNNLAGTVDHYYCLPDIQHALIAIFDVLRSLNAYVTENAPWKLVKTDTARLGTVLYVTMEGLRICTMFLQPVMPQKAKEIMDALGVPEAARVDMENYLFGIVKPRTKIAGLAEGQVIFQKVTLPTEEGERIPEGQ

A: 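Assay on Mycobacterium tuberculosis, filed only as a heat shock assay from Cornell; the read-out is not stated. The concentration is filed as 10 mM, unlikely as a test dose, so the dose is not known. The record gives no direction; compounds that gave an IC50 in retests scored well above the rest, so higher reads as stronger inhibition. Of about 69,000 compounds tested this way, about 930 (1.4%) reached 50% or more in at least one test.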
B: 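Methionyl-tRNA synthetase (putative), Leishmania donovani (UniProt E9BF75). Primary screen of methionyl-tRNA synthetase; the read-out is not stated. The test concentration is not given. Values are per cent inhibition. About 68,000 compounds were tested under these conditions; 0.035% (about 24) showed 50% or more at least once.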
C: 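Whole-cell assay for inhibitors of Mycobacterium tuberculosis growth, labelled Cornell in the record; the read-out is not stated. The concentration is filed as 10 mM, unlikely as a test dose, so the dose is not known. Higher means stronger inhibition (inferred from two other growth screens of the library). Size under these conditions: about 53,000 compounds, about 900 of them at 50% or above in at least one test.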

Results are percentages, as filed.
The record does not define 0% and 100%; most values in the screen are far below 50% and negative numbers occur (in some assays of this library far below -100).
Compounds were drawn at random from those tested, without regard to their results.
A dash means the value is not listed here; it may have been measured.

| # | Compound | A | B | C |
|---|---|---|---|---|
| 1 | `CCn1cc(S(=O)(=O)NCC(c2ccccc2)N2CCOCC2)c(C)n1` (stereo unspecified) | -8.535 | 8.723 | -36.74 |
| 2 | `Cc1nc(NC2CCCC2)c2c(n1)c(C)nn2C` | 15.85 | 7.551 | 15.87 |
| 3 | `O=C(O)C(F)(F)F.[H][C@@]12COC[C@@H](C(=O)N3CCCO3)[C@]1([H])CN(C1CCCC1)C2` | -32.97 | - | 11.03 |
| 4 | `CC(C)CN(c1cn[nH]c1)S(=O)(=O)c1cccc(C#N)c1` | -9.662 | -1.099 | -13.96 |
| 5 | `CN1CC[C@H]2CN(C(=O)c3csc(Cc4ccccc4)n3)C[C@H]21` | - | 3.817 | - |
| 6 | `O=C(O)C(F)(F)F.O=C(O)C(F)(F)F.O=C(O)C(F)(F)F.[H][C@]12C[C@H](C(=O)NC)N(C(C)C)[C@@]1([H])CN(Cc1cccnc1OC)C2` | -26.53 | - | 5.488 |
| 7 | `Cc1noc(C)c1CN1C[C@H](C)[C@]2(CCN(Cc3cccnc3)C2=O)C1.O=C(O)C(F)(F)F.O=C(O)C(F)(F)F` | 9.778 | - | -5.753 |
| 8 | `O=C(c1ccncc1F)N1CCc2ncnc(C3CC3)c2CC1` | - | 16.83 | - |
| 9 | `COc1ccc(-c2cc(C3CCNCC3)nc(C)n2)cc1` | - | 13.83 | - |
| 10 | `Fc1ccc(-c2nc(CN3CCCC3Cn3cncn3)co2)cc1` (stereo unspecified) | -19.58 | 3.012 | - |
| 11 | `[H][C@@]12CCCO[C@]1([H])[C@H](NS(C)(=O)=O)CN(C(=O)c1ccccn1)C2` | -26.03 | - | 18.11 |
| 12 | `COCCc1noc(CN2CCOC(Cn3nc(C)cc3C)C2)n1` (stereo unspecified) | 5.954 | 14.29 | 11.63 |
| 13 | `COc1ncc(-c2cc(NC3CCCC3)nc3[nH]ccc23)c(OC)n1` | 102 | 12.81 | 89.73 |
| 14 | `CCc1c(C)nc2cc(-c3nccn3C)nn2c1N1CCCC(CO)C1` (stereo unspecified) | 3.686 | 7.558 | 11.03 |
| 15 | `CCc1ncc2c(n1)CN(C(C)C(=O)N1CCOCC1)CC2` (stereo unspecified) | -25.08 | 3.495 | -26.67 |
| 16 | `CN(CC(C)(CO)CO)C(=O)Nc1cc(Cl)cc(Cl)c1` | 10.54 | 15.79 | 27.3 |
| 17 | `CN(Cc1ccncc1)CC(c1cccs1)N1CCOCC1` (stereo unspecified) | -14.6 | 11.11 | 8.495 |
| 18 | `CCOCC1CN(c2ccncn2)Cc2cnn(CC)c21.O=C(O)C(F)(F)F.O=C(O)C(F)(F)F` (stereo unspecified) | -15.06 | - | 2.227 |
| 19 | `Cc1noc(C)c1CN1CCN(CC2CC2)c2ncccc2C1.O=C(O)C(F)(F)F.O=C(O)C(F)(F)F` | -0.3529 | - | - |
| 20 | `COCC1CN(Cc2ccoc2)Cc2nn(CC3CC3)cc21` (stereo unspecified) | - | -5.476 | - |
| 21 | `CN(CCCNC(=O)C1CCc2cn[nH]c2C1)c1ccccc1` (stereo unspecified) | -0.5816 | 21.77 | - |
| 22 | `O=C(O)C(F)(F)F.O=C(O)C(F)(F)F.[H][C@@]12COC[C@]1(COc1cccnc1)CN(Cc1ccc(OC)cc1)C2` | 4.785 | - | 13.81 |
| 23 | `Cc1noc(C)c1CN1CCC2(CC1)CCN(C(=O)c1cscn1)C2.O=C(O)C(F)(F)F` | -16.79 | - | -7.909 |
| 24 | `Cc1nccc(N(C)Cc2ncc(-c3ccccc3C(=O)O)s2)n1` | -4.579 | 19.69 | 45.01 |
| 25 | `CCCS(=O)(=O)Nc1ccc2c(c1)OCC(C)(C)C(=O)N2C` | -20.02 | 7.389 | -9.536 |
| 26 | `CSCc1noc(C2CCC(=O)N(CCCN3CCCC3=O)C2)n1` (stereo unspecified) | -10.46 | 11.17 | 4.309 |
| 27 | `[H][C@@]12OCCN(S(=O)(=O)c3cn(C)cn3)[C@@]1([H])CC[C@@H]2OCC1CC1` | -10.66 | - | 16.07 |
| 28 | `Cc1cc(-c2cnc(N3CCC(C(N)=O)CC3)nc2C(C)C)on1` | -7.021 | 4.07 | 9.482 |
| 29 | `Cc1cnn(CC2CCCN2C(=O)c2ccc(OC(C)C)nc2)c1` (stereo unspecified) | -1.379 | 4.294 | 9.527 |
| 30 | `[H][C@]12CN(c3ncc(F)cn3)C[C@@]1([H])S(=O)(=O)CC[C@@H]2C(=O)NC(C)C` | 7.467 | - | 7.019 |
| 31 | `Cc1cc(C)n(-c2ccc(N3CCCSCC3)nc2)n1` | -2.334 | 9.524 | - |
| 32 | `NC(=O)NC(=O)C(c1ccccc1)N1CCN(Cc2ccc(Cl)s2)CC1` (stereo unspecified) | 13.83 | 16.13 | -13.55 |
| 33 | `CC(=O)N1CCN(C[C@H]2CC[C@@H](Cc3ccc4ncccc4c3)O2)CC1` | -14.79 | 12.93 | -11.31 |
| 34 | `CC(=O)N1CCCC1C(=O)NCCOc1c(C)cccc1C` (stereo unspecified) | 6.449 | 21.02 | - |
| 35 | `CC(NC(=O)CCC(C)(C)C)C(=O)Nc1ccc(-n2cncn2)cc1` (stereo unspecified) | 19.78 | 0.5988 | 5.858 |
| 36 | `NC(=O)Cn1c(SCc2noc(-c3ccsc3)n2)nnc1C1CC1` | -1.649 | 8.707 | -12.98 |
| 37 | `CNc1c(NCc2ccco2)c(=O)c1=O` | -2.792 | 13.28 | -73.54 |
| 38 | `COc1cccc(CC(=O)NCCc2nnc3n2CCCCC3)c1` | -33.73 | 4.57 | -75.67 |
| 39 | `CCCN1CC[C@@H]2OC[C@H](C(=O)Nc3cccnc3)C[C@@H]2C1` | - | 10.14 | - |
| 40 | `COCCCN1Cc2cccc(NC(=O)c3cc(F)ccc3F)c2C1` | -5.518 | 8.488 | 12.75 |
| 41 | `CCS(=O)(=O)N1CC[C@H]2C(=O)N(Cc3cccnc3)CCO[C@H]2C1` | - | 19.37 | - |
| 42 | `O=C(O)C(F)(F)F.O=C(c1cscn1)N1CCC2(CN(Cc3ccsc3)C2)C1` | -39.63 | - | -51.04 |
| 43 | `O=C(O)C(F)(F)F.[H][C@]12CCN(Cc3ccc(F)cc3)C[C@@]1([H])OCCN(S(C)(=O)=O)C2` | -18.47 | - | 9.775 |
| 44 | `CCn1cc(NC(=O)NCC(C)O)cn1` (stereo unspecified) | 24.36 | 9.859 | 9.009 |
| 45 | `O=C(NCc1cnc2n1CCN(CC1CC1)C2)C1CC1` | - | 6.091 | - |
| 46 | `CC(C)CC(NC(=O)c1cc(-c2cccn2C)n[nH]1)c1ncnn1C` (stereo unspecified) | 17.98 | 10.65 | - |
| 47 | `CCN1CC(=O)NCC12CCN(C(=O)c1ccno1)C2.O=C(O)C(F)(F)F` (stereo unspecified) | -1.448 | - | - |
| 48 | `CC(C)c1ncc2c(n1)CN(Cc1nc3c(F)cccc3[nH]1)CC2` | 16.2 | 18.53 | 21.12 |
| 49 | `Cc1cc2cccc(NC(=O)N3CCC(N4CCSCC4)CC3)c2o1` | 16.81 | 15.79 | 26.32 |
| 50 | `COc1ccsc1C(=O)NC1CCN(c2cccc(F)c2)CC1` | -11.73 | 12.06 | -3.623 |
| 51 | `Cn1nnnc1SCCC(=O)NCC(C)(C)c1ccccc1F` | -3.511 | 12.57 | 4.847 |
| 52 | `Cc1ccc(C(=O)NCCNCC2CNc3ccnn3C2)cc1F` (stereo unspecified) | -12.35 | 13.04 | 11.93 |
| 53 | `O=C1CCc2cc(S(=O)(=O)NC(=O)c3ccc4c(c3)COC4)ccc2N1` | -2.8 | 12.97 | -3.929 |
| 54 | `O=C(CCNc1ncccn1)NCCc1ccn(-c2ccccc2)n1` | -14.38 | 8.333 | - |
| 55 | `CCn1ccnc1CN(C)Cc1nc(CCC(C)C)no1` | -10.21 | 1.393 | 5.247 |
| 56 | `O=C1CCCCCN1CCC(=O)N1CCCC(c2ccn[nH]2)C1` (stereo unspecified) | 1.153 | - | - |
| 57 | `Cc1nc(N)nc(C)c1CC(=O)NCc1ccc2nonc2c1` | -13.66 | 10.47 | 8.904 |
| 58 | `CCOc1ncnc2c1CCN(C(=O)c1ccncc1F)CC2.O=C(O)C(F)(F)F` | 3.848 | - | -1.936 |
| 59 | `CC(C)N(C)S(=O)(=O)N(Cc1cccs1)Cc1cccs1` | 24.9 | -1.079 | 53.57 |
| 60 | `CCn1ccnc1CN1CCN(Cc2cccc(C#N)c2)CC1` | -23.92 | 13.97 | - |
| 61 | `O=C(O)C(F)(F)F.O=C(O)C(F)(F)F.O=C(O)C(F)(F)F.[H][C@@]12CN(Cc3ccncc3)C[C@]1([H])OCCN2c1ccc(C)nn1` | -9.194 | - | 14.56 |
| 62 | `COc1ccc(-n2cccn2)c(CN2CCC3(CCNCC3)C2)c1` | 3.989 | 15.23 | - |
| 63 | `C[C@@H]1CN(C(=O)c2ccc(Br)cc2F)CC(C(N)=O)O1` (stereo partly specified) | 14.77 | 4.57 | -46.65 |
| 64 | `CCCNCc1cn(Cc2ccccc2)nc1-c1cccnc1.Cl` | 2.703 | - | - |
| 65 | `Cc1ccc2c(c1)C(=O)NCC1(CCN(Cc3ccccc3)CC1)O2` | -11.12 | 19.42 | -18.58 |
| 66 | `Cc1ncc(CNC2CC(=O)N(CCc3cccc(Cl)c3)C2)n1C` (stereo unspecified) | -6.507 | -12.88 | 9.225 |
| 67 | `Cc1cc(C(=O)N[C@H]2CN(CCC(N)=O)C[C@@H]2C2CC2)sc1C` | -0.1384 | 10.13 | - |
| 68 | `CCn1nc2c(cc1=O)CN(Cc1coc(-c3ccccc3)n1)CC2` | -0.5356 | 14.42 | - |
| 69 | `CCN(CCC(F)(F)F)C(=O)Nc1cccc(N2CCOCC2)c1` | 0.1941 | 10.51 | - |
| 70 | `COc1cccc(-c2nc(C)c(C(=O)N[C@@H](C)C(=O)O)s2)c1` | 2.62 | 7.884 | - |
| 71 | `Cc1c(Cl)cccc1NC(=O)N1CCN(Cc2ccccn2)CC1` | -21.87 | 28.04 | 28.2 |
| 72 | `CN(C)C(=O)c1ccc(NCCNc2ccc3ccccc3n2)nc1` | -20.76 | 1.504 | -63.22 |

Repeated from the top, 4 entries:

Compound	A	B	C
CCn1cc(S(=O)(=O)NCC(c2ccccc2)N2CCOCC2)c(C)n1 (stereo unspecified)	-8.535	8.723	-36.74
Cc1nc(NC2CCCC2)c2c(n1)c(C)nn2C	15.85	7.551	15.87
O=C(O)C(F)(F)F.[H][C@@]12COC[C@@H](C(=O)N3CCCO3)[C@]1([H])CN(C1CCCC1)C2	-32.97	-	11.03
CC(C)CN(c1cn[nH]c1)S(=O)(=O)c1cccc(C#N)c1	-9.662	-1.099	-13.96

The values are deposited in ChEMBL (CHEMBL3988442, “University of Dundee, Small-Polar-MMV Screening Library” (2021)).